Data set [1] deals with GATA3-FLAG (Homo sapiens) (UniProt P23771). The data set is described as follows: EMSA. The conditions noted are these: 20 ng GATA3-FLAG alone, 2 ng probe; EMSA as previously described (buffer, salt, pH, temperature not given); 5% nondenaturing polyacrylamide gel; recombinant protein; protein details: C-terminal 3xFLAG; label: radiolabeled. For orientation: A gel shift assay detects complexes by their altered migration in electrophoresis.

Amino acid sequences for entries named in this document (tags omitted). A change or cut given only in a name is not applied to a line headed by its entry.
UniProt P23771: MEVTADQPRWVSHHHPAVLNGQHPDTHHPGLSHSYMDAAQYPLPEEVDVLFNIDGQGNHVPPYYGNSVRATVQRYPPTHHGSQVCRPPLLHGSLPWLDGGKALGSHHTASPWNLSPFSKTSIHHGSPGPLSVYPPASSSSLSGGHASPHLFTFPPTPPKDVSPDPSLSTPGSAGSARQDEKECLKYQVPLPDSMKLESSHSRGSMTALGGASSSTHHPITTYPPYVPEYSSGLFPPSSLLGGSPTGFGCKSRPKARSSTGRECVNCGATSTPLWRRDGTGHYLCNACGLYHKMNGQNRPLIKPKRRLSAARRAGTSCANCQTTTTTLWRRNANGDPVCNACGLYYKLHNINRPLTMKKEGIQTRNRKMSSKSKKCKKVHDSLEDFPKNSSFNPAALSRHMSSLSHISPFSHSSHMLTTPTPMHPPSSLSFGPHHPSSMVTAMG

The target in a further data set is T1, GCM1-FLAG (UniProt Q9NP62).
T1 sequence (looked up, limits assumed): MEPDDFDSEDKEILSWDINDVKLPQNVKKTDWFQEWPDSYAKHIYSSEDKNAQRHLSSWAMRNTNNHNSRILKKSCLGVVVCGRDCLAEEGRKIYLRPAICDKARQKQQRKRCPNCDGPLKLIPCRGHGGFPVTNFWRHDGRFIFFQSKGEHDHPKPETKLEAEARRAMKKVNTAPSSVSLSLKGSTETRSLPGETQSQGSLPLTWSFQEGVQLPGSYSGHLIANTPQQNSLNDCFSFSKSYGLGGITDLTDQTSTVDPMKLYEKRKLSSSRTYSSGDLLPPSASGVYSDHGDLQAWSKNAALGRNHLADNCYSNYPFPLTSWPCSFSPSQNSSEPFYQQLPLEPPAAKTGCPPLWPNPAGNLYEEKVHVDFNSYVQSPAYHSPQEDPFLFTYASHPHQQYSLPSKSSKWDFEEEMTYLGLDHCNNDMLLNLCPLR
Kind of data set: EMSA. The conditions noted are these: 20 ng GCM1-FLAG, 2 ng probe, binding not affected by 20-60 ng GATA3-FLAG; EMSA as previously described (buffer, salt, pH, temperature not given); 5% nondenaturing polyacrylamide gel; recombinant protein; protein details: FLAG; label: radiolabeled.

For at least one entry, the source does not settle the construct or the ends of the probe. For some assays here: No signal at the amounts used counts as a negative. For some assays here: Protein sequences can lack the tags named with them.

In the case of “CAGTCTGCCCTCATTGTCGG (double strand) [HtrA4-GBS]”, the figures for the binding result (in data set [1]; in the data set with GCM1-FLAG) were “no binding” and “binds”, respectively.

These data come from paper PMC4761948.
